Data as given in PubChem BioAssay AID493246 (Drosophila RNAi Screening Center, 2011)
Test: 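Genome-wide search for dsRNAs that reduce cell number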 (primary screen). Cell system: Drosophila Kc and S2R+ cells. Knock-down reagent: long dsRNA against Drosophila genes. Measurement: 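Cell number per well after knock-down, printed as raw plate values; calls were based on per-plate z-scores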. Scale: Kc cell number and S2R+ cell number: higher = more cells remaining. Call rule: 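Counted as a hit if cell number falls by a z-score of at least 3 within its plate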.
In all, the deposit lists about 21,000 reagents; below is a random part of those that have a named target and a result. Over the whole deposit, 429 (2%) are marked active. 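Values are raw and not normalised between plates; calls rest on per-plate z-scores that were not deposited.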 A plus sign joins genes that one reagent is predicted to hit. Not stated in the record: the amount of reagent, the time to read-out.

gene,DRSC id,"Kc cell number, rep 1","Kc cell number, rep 2","S2R+ cell number, rep 1","S2R+ cell number, rep 2",Call
CG30383 (GeneID 246583),DRSC05062,1.37e6,1.43e6,9.53e5,1.06e6,inactive
CG42237 (GeneID 32261),DRSC19891,1.72e6,1.60e6,1.11e6,1.19e6,inactive
CG13193 (GeneID 36256),DRSC06318,1.67e6,1.65e6,1.24e6,1.44e6,inactive
Jhe (GeneID 36780),DRSC07174,1.49e6,1.52e6,1.13e6,1.26e6,inactive
Rdl (GeneID 39054),DRSC11264,1.37e6,1.50e6,1.26e6,1.16e6,inactive
Stoml2 (GeneID 37807),DRSC04326,1.56e6,1.65e6,9.54e5,1.03e6,inactive
bdwf (GeneID 42057),DRSC15532,1.65e6,1.71e6,1.29e6,1.33e6,inactive
CG14841 (GeneID 41735),DRSC14965,1.53e6,1.57e6,9.26e5,9.89e5,inactive
CG16865 (GeneID 34788),DRSC01904,1.52e6,1.48e6,1.26e6,1.36e6,inactive
Trmt61 (GeneID 43170),DRSC14888,1.56e6,1.69e6,1.05e6,1.22e6,inactive
CG32301 (GeneID 38285),DRSC08613,1.47e6,1.35e6,9.83e5,1.19e6,inactive
Usp30 (GeneID 31519),DRSC18265,1.78e6,1.76e6,1.07e6,1.24e6,inactive
CG4607 (GeneID 31653),DRSC18375,1.58e6,1.58e6,1.07e6,1.24e6,inactive
CG31419 (GeneID 326137),DRSC15771,1.44e6,1.56e6,1.05e6,1.12e6,inactive
CG2258 (GeneID 31729),DRSC18222,4.88e5,,8.83e5,,inactive
bmm (GeneID 39611),DRSC10502,1.43e6,1.56e6,1.24e6,1.22e6,inactive
unc-45 (GeneID 44910),DRSC15449,1.29e6,1.34e6,1.35e6,1.43e6,inactive
GV1 (GeneID 38238),DRSC08228,1.26e6,1.42e6,1.14e6,1.23e6,inactive
fid (GeneID 43148),DRSC14885,1.47e6,1.43e6,9.70e5,1.04e6,inactive
fid (GeneID 43148),DRSC16464,1.58e6,1.67e6,9.49e5,1.03e6,inactive
CG34327 (GeneID 5740714),DRSC19517,1.72e6,1.79e6,1.10e6,1.38e6,inactive
CAH3 (GeneID 31804),DRSC17776,1.53e6,1.52e6,1.19e6,1.28e6,inactive
CG15522 (GeneID 43546),DRSC15059,1.48e6,1.51e6,1.06e6,1.17e6,inactive
AANATL6 (GeneID 37212),DRSC06773,1.56e6,1.55e6,1.14e6,1.18e6,inactive
cype (GeneID 46040),DRSC02356,1.39e6,1.39e6,1.08e6,1.25e6,inactive
Grip75 (GeneID 34441),DRSC03337,1.71e6,1.68e6,1.25e6,1.41e6,inactive
PolE4 (GeneID 37560),DRSC04105,1.69e6,1.68e6,1.26e6,1.42e6,inactive
CalpB (GeneID 39165),DRSC11109,1.26e6,1.33e6,1.35e6,1.02e6,inactive
h-cup (GeneID 41879),DRSC15973,1.60e6,1.67e6,1.38e6,1.47e6,inactive
CG13837 (GeneID 42720),DRSC14687,1.87e6,1.72e6,1.06e6,1.20e6,inactive
CG34354 (GeneID 5740528),DRSC13863,1.28e6,1.56e6,1.14e6,1.10e6,inactive
CG34354 (GeneID 5740528),DRSC14515,1.19e6,1.23e6,5.34e5,5.98e5,active
CG34354 (GeneID 5740528),DRSC14558,9.54e5,9.73e5,5.17e5,6.37e5,active
CG34354 (GeneID 5740528),DRSC15645,1.44e6,1.46e6,9.96e5,1.11e6,inactive
CG15293 (GeneID 34828),DRSC01919,1.71e6,1.91e6,1.19e6,1.36e6,inactive
Hsp70Bc (GeneID 48583),DRSC16053,1.53e6,1.57e6,1.14e6,1.21e6,inactive
Cad87A (GeneID 41441),DRSC16161,1.52e6,1.70e6,1.32e6,1.37e6,inactive
CG14933 + CG42486,DRSC02415,1.71e6,1.78e6,1.32e6,1.47e6,inactive
CG9106 (GeneID 32454),DRSC20154,5.92e5,,9.17e5,,inactive
CG10444 (GeneID 37294),DRSC05990,1.35e6,1.39e6,1.16e6,1.20e6,inactive
Oli (GeneID 35066),DRSC02866,1.27e6,1.34e6,1.20e6,1.21e6,inactive
Nfs1 (GeneID 34613),DRSC02154,1.43e6,1.43e6,1.12e6,1.19e6,inactive
CG31125 (GeneID 318599),DRSC13684,1.35e6,1.64e6,1.06e6,8.41e5,inactive
CG9313 (GeneID 37374),DRSC04540,1.65e6,1.72e6,9.83e5,1.07e6,inactive
TP53INP (GeneID 38543),DRSC08178,1.26e6,1.42e6,1.04e6,1.14e6,inactive
CG32052 (GeneID 326184),DRSC10966,1.27e6,1.42e6,1.28e6,1.26e6,inactive
CG33639 (GeneID 32803),DRSC19966,1.46e6,1.40e6,1.05e6,1.19e6,inactive
Gadd45 (GeneID 35646),DRSC06033,1.57e6,1.66e6,1.22e6,1.32e6,inactive
CheB74a (GeneID 3772073),DRSC09503,1.42e6,1.52e6,1.10e6,1.27e6,inactive
TwdlY (GeneID 318093),DRSC19153,1.17e6,1.30e6,1.06e6,1.18e6,inactive
GPHR (GeneID 36682),DRSC07075,1.58e6,1.61e6,1.35e6,1.46e6,inactive
lbk (GeneID 36788),DRSC07178,1.41e6,1.41e6,1.25e6,1.27e6,inactive
CG6435 (GeneID 36894),DRSC06987,1.71e6,1.68e6,1.35e6,1.58e6,inactive
ND-19 (GeneID 37946),DRSC04404,1.68e6,1.71e6,1.23e6,1.39e6,inactive
CG34398 (GeneID 5740462),DRSC01052,1.85e6,1.79e6,1.10e6,1.27e6,inactive
CG34398 (GeneID 5740462),DRSC02510,1.64e6,1.70e6,1.20e6,1.41e6,inactive
CG34398 (GeneID 5740462),DRSC02511,8.76e5,1.07e6,1.10e6,8.75e5,inactive
CG34398 (GeneID 5740462),DRSC03228,1.62e6,1.78e6,1.29e6,1.47e6,inactive
CG32022 (GeneID 317826),DRSC09678,1.60e6,1.50e6,1.09e6,1.16e6,inactive

Entries listed above called active:
gene,DRSC id,"Kc cell number, rep 1","Kc cell number, rep 2","S2R+ cell number, rep 1","S2R+ cell number, rep 2",Call
CG34354 (GeneID 5740528),DRSC14515,1.19e6,1.23e6,5.34e5,5.98e5,active
CG34354 (GeneID 5740528),DRSC14558,9.54e5,9.73e5,5.17e5,6.37e5,active
